Source: publication PMC10739863
No constants are given. Whether binding was seen depends on the method and setting. In cells and extracts the contact can be indirect. Some binding calls cover weakened binding; strength is not graded here. For some of these results: Sequences can lack the tags named with a protein. Each block holds one molecule with its values, some of them ahead of it.

Sequences of proteins named here, by UniProt entry; tags and fusion partners are left off.
UniProt P84022: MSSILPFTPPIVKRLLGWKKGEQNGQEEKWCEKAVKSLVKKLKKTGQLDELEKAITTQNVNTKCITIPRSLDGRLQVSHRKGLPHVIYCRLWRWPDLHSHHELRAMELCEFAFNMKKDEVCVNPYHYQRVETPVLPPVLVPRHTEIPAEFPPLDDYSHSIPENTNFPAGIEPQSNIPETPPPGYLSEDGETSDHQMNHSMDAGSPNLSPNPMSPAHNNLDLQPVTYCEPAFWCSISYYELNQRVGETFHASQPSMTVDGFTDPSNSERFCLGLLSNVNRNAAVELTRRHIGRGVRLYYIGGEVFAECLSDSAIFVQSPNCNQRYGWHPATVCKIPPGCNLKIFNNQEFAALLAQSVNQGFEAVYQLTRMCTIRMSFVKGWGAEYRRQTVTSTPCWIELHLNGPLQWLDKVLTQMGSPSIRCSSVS
UniProt Q15796: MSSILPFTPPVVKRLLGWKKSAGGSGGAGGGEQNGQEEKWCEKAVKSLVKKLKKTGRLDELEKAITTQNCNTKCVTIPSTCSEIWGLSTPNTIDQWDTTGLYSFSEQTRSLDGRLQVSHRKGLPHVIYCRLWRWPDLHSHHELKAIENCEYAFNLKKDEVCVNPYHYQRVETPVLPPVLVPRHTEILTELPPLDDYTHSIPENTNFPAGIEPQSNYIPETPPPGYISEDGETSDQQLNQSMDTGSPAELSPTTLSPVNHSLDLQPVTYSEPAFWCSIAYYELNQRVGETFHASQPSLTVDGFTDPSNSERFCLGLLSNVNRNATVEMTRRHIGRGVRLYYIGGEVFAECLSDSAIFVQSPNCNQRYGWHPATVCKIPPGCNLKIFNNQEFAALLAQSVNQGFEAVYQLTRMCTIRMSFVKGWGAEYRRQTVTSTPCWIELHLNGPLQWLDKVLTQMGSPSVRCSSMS
UniProt Q09472: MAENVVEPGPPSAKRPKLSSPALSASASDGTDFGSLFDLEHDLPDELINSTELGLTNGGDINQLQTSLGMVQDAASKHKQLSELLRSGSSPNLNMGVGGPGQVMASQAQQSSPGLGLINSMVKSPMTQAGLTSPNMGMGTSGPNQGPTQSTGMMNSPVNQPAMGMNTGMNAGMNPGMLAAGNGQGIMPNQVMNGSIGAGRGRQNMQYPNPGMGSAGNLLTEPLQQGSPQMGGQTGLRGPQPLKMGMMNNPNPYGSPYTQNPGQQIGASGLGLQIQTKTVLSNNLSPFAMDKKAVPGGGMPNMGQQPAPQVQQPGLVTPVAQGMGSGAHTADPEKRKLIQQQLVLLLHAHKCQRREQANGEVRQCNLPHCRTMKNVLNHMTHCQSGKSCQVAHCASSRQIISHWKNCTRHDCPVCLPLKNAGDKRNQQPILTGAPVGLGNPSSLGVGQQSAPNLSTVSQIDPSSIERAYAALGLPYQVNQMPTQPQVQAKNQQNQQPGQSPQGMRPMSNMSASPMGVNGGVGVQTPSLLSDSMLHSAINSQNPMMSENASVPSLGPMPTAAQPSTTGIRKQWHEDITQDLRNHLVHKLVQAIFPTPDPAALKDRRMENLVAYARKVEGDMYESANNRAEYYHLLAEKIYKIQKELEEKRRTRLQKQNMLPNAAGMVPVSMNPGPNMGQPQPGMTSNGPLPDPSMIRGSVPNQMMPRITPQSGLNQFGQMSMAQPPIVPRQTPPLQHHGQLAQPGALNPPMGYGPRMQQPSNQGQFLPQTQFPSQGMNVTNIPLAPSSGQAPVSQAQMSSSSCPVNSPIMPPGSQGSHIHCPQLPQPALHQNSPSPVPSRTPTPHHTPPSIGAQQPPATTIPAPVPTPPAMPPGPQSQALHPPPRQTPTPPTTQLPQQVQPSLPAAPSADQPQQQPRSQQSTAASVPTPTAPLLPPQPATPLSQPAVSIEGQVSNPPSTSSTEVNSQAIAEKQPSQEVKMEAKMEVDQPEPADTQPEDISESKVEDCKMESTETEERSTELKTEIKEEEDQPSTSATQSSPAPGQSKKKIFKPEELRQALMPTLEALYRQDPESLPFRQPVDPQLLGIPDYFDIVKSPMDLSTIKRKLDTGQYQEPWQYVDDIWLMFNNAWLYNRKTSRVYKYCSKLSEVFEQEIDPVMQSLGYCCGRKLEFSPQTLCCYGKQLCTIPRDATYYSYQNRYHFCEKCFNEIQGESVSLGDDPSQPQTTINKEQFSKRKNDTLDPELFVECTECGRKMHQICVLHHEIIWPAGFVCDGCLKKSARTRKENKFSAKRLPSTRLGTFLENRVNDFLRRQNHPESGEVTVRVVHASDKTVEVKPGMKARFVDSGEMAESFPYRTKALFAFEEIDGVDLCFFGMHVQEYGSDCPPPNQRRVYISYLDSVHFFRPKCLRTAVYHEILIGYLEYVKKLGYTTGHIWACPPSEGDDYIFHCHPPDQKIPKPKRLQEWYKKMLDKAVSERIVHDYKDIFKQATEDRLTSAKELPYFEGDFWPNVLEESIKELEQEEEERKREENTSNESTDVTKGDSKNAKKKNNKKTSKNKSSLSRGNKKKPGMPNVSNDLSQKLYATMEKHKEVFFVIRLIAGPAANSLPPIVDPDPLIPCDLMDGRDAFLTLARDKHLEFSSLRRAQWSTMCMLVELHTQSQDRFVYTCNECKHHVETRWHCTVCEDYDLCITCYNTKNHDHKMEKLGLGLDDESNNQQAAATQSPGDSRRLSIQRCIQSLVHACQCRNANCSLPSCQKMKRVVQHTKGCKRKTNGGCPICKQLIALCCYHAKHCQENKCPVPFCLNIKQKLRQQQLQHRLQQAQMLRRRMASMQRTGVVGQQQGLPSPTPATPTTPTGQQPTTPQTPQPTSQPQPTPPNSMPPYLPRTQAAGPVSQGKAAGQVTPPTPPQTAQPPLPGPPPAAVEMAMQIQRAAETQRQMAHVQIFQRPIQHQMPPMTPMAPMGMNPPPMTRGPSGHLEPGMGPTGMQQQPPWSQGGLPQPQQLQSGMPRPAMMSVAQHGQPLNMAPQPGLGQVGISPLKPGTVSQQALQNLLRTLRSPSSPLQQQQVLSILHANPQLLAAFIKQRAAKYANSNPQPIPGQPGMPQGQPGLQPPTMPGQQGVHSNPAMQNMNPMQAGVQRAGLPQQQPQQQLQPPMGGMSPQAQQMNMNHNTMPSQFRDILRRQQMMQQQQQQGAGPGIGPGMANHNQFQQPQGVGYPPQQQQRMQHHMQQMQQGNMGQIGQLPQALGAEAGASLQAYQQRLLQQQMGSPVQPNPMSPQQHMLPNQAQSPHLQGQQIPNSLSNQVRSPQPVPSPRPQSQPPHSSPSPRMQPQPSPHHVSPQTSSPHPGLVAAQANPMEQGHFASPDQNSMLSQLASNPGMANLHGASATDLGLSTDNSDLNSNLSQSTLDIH

Key:
[1] = target: T1, GST-SET8 N-terminal region (1-191 amino acids) (UniProt Q9NQR1); assay: pull-down; GST pull-down: lysates of transfected cells (48 h; TNTE buffer: 50 mM Tris-HCl pH 7.5, 150 mM NaCl, 1 mM EDTA, 0.5% Triton X-100) incubated with GST fusion proteins, anti-FLAG immunoblot; only the target purified
T1 sequence: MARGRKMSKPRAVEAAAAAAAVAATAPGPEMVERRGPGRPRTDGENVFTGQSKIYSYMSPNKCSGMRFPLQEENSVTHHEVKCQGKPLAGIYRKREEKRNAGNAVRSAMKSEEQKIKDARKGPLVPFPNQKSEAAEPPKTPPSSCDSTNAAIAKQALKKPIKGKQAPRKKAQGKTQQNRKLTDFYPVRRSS

FLAG-Smad3 (HEK293) = FLAG-Smad3 (HEK293) (UniProt P84022); assay: co-IP; HEK293 cells transfected with the indicated constructs, with or without SET8; after 24 h FLAG-Smad3 immunoprecipitated with anti-FLAG antibody, immunoblot
[2] = target: endogenous Smad2 (human (endogenous in HepG2)) (UniProt Q15796); assay: co-IP; endogenous proteins; HepG2 cells with or without 100 pM TGF-β (30 min, 1.5 h); lysates immunoprecipitated with anti-Smad2/3 antibody, immunoblot
[3] = target: endogenous Smad3 (human (endogenous in HepG2)) (UniProt P84022); assay: as above

binding [1]: binds
Molecule: FLAG-Smad3 (HEK293) (from UniProt P84022 1-425)

binding (FLAG-Smad3 (HEK293)): binds
Molecule: p300 (from UniProt Q09472 1-2414) (enzyme)

binding [2]: binds
binding [3]: binds
B1: endogenous SET8 (enzyme, UniProt Q9NQR1 1-393)
chain: MGEGGAAAALVAAAAAAAAAAAAVVAGQRRRRLGRRARCHGPGRAAGGKMSKPCAVEAAAAAVAATAPGPEMVERRGPGRPRTDGENVFTGQSKIYSYMSPNKCSGMRFPLQEENSVTHHEVKCQGKPLAGIYRKREEKRNAGNAVRSAMKSEEQKIKDARKGPLVPFPNQKSEAAEPPKTPPSSCDSTNAAIAKQALKKPIKGKQAPRKKAQGKTQQNRKLTDFYPVRRSSRKSKAELQSEERKRIDELIESGKEEGMKIDLIDGKGRGVIATKQFSRGDFVVEYHGDLIEITDAKKREALYAQDPSTGCYMYYFQYLSKTYCVDATRETNRLGRLINHSKCGNCQTKLHDIDGVPHLILIASRDIAAGEELLYDYGDRSKASIEAHPWLKH
